Experimental data reported in PubChem BioAssay AID504444 (National Center for Advancing Translational Sciences (NCATS), 2011).
Screen size: about 360,000 compounds; about 7,500 (2.1%) were called active. The inconclusive results got no clear call from the source; some entries with a clear call stand among them for comparison. Calls come from the whole dose curve; as a rule, active = well fitted inhibition curve with a large enough effect; inconclusive = small, poorly fitted or top-dose-only effect, or effect the other way; inactive = flat fitted curve, though single readings scatter. Potencies beside an inconclusive call are fits to weak or partial responses and may not hold up.
Potency is the fitted concentration of half-maximal effect.

Experiment: Nrf2 qHTS screen for inhibitors; note: nearly all actives have a fitted effect of over 60% in size
Conditions: A549 ARE-Fluc reporter, luciferase luminescence, 18-24 h; series mostly up to 46 µM
Method in brief: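 Reporter: ARE-Fluc in A549. Exposure: 18-24 h, 37 °C, 5% CO2, 5% FBS OPTI-MEM. Readouts: fluorescent cytotoxicity (CellTiter-Fluor), then luminescent Nrf2 signal after BugLite.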
In the case of `COc1ccc(/C=C2\SC(=S)N(CCC(=O)NC3CCCC3)C2=O)cc1OC`, the Potency is reported as inconclusive: 6.51 µM [activator, single point].
In the case of `CCOC(=O)/C(C#N)=C/c1cc(C)n(-c2ccccc2)c1C`, the Potency is reported as inconclusive: 0.231 µM [activator, full curve, poor fit].
For `O=C(CCC1CCCN(C(=O)CC2=CCCCC2)C1)N1CCN(c2ccccn2)CC1` (stereo not given), the Potency was inconclusive: 20.6 µM [falling, single point].
With `N#C/C(C(N)=O)=C1/SC=C(c2ccccc2)N1c1ccccc1` the Potency was inconclusive: 32.6 µM [falling, single point].
With `CCOC(=O)c1ccc(Nc2nc(N)c3cc(OC)c(OC)cc3n2)cc1` the Potency was “inactive”.
With `Cc1ccc(C(=O)C2CCN(CC(=O)N3CCN(c4ccc(F)cc4)CC3)CC2)cc1` the Potency was “inactive”.
In the case of `CCc1ccc(N=CC23c4ccccc4C(c4ccccc42)C2C(=O)N(c4ccc(OC)cc4)C(=O)C23)cc1` (stereo not given), the Potency is reported as inconclusive: 18.4 µM [falling, single point].
For `COc1ccc([N+](=O)[O-])cc1NCc1ccco1`, the Potency was inconclusive: 25.9 µM [activator, single point].
With `CCC1CCCCN1S(=O)(=O)c1ccc(NC(=O)c2nc(SC)ncc2Cl)cc1` (stereo not given) the Potency was inconclusive: 16.4 µM [falling, partial curve].
With `C=CCNC(=O)N1CCC(n2nccc2NC(=O)CCCc2ccccc2)CC1` the Potency was inconclusive: 29.1 µM [falling, single point].
For `COc1ccccc1-c1nnc2n1N=C(c1ccc(OC(F)F)c(OCC3CC3)c1)CS2`, the Potency was inconclusive: 16.4 µM [falling, partial curve, poor fit].
In the case of `Cc1cccc(N2CCN(C(=O)N3CCOCC3)CC2)c1C`, the Potency is reported as “inactive”.
With `CC(NC(=O)c1cccc(S(=O)(=O)N(C)c2ccccc2)c1)c1cccnc1` (stereo not given) the Potency was inconclusive: 25.9 µM [falling, single point].
In the case of `Cc1nc2cc(-c3ccccc3)nn2c(C)c1CCC(=O)NCCc1ccccc1`, the Potency is reported as inconclusive: 5.17 µM [falling, partial curve].
In the case of `FC(F)(F)c1cc(Oc2ccccc2)nc(-c2ccccn2)n1`, the Potency is reported as inconclusive: 11.6 µM [falling, partial curve, poor fit].
For `COc1ccc(-c2ccc3c(N)c(C(=O)Nc4ccc(C)cc4C)sc3n2)cc1OC`, the Potency was inconclusive: 16.4 µM [falling, single point].
In the case of `O=C1c2ccccc2C(=O)C1c1nccc2ccccc12`, the Potency is reported as inconclusive: 0.82 µM [activator, full curve].
For `Cc1ccc(NC(=O)c2ccc(Cl)c(S(=O)(=O)N3CCCC3)c2)nc1`, the Potency was inconclusive: 20.6 µM [falling, single point].
For `O=C(Nc1nc2ccccc2[nH]1)c1ccccc1[N+](=O)[O-]`, the Potency was inconclusive: 5.17 µM [activator, full curve].
In the case of `COc1ccccc1Oc1ccc(N/C=C/C(=O)C(C)(C)C)cc1`, the Potency is reported as inconclusive: 23.1 µM [activator, partial curve, poor fit].
With `Cc1ccc(S(=O)(=O)c2cc(C)cc(S(=O)(=O)Nc3ccc(C(=O)O)cc3)c2C)cc1` the Potency was “inactive”.
For `Cn1c(=O)c2c(ncn2CC(O)CNc2ccc(Br)cc2)n(C)c1=O` (stereo not given), the Potency was inconclusive: 20.6 µM [falling, single point].
With `CC(C)(C)NCCC(O)c1cc(C(F)(F)F)nc2c(C(F)(F)F)cccc12` (stereo not given) the Potency was “inactive”.
For `Cn1c(=O)n(C)c2cc(S(=O)(=O)N3CCCCC3)ccc21`, the Potency was inconclusive: 11.6 µM [falling, partial curve, poor fit].
In the case of `CNc1nc(-c2ccccn2)nnc1-c1ccccc1`, the Potency is reported as active: 11.2 µM.
With `CCOC(=O)/C(C#N)=C1/C=CN(c2ccc(C)cc2)C=N1` the Potency was inconclusive: 20.6 µM [activator, single point].
For `CCOc1ccc(NC(=O)CSCc2cnn(-c3ccccc3)c2-n2cccc2)cc1`, the Potency was inconclusive: 16.4 µM [falling, partial curve, poor fit].
With `CCOc1ccccc1C(=O)NCC(=O)N1CCC(C)CC1` the Potency was inconclusive: 7.31 µM [activator, partial curve, poor fit].
With `Cc1nn(C)c2c1c(-c1ccccc1)cc(=O)n2C(C)C(=O)NCCc1ccc(Cl)cc1` (stereo not given) the Potency was inconclusive: 0.461 µM [falling, full curve, poor fit].
For `C/C(N)=C(/C#N)C(=O)CSc1nc(C2CCCCC2)n(-c2ccccc2)n1`, the Potency was inconclusive: 18.4 µM [falling, single point].
For `CCN1CCC(NC(=O)c2cc(OC)c(OC)cc2OC)CC1`, the Potency was inconclusive: 1.46 µM [falling, full curve, poor fit].
For `CCOC(=O)N1CCN(C(=O)c2c[nH]c3ccc(S(=O)(=O)N(C)c4ccccc4C)cc3c2=O)CC1`, the Potency was inconclusive: 2.31 µM [falling, partial curve, poor fit].
For `COCCn1c(C)cc(C(=O)COC(=O)c2cccc(O)c2)c1C`, the Potency was inconclusive: 1.16 µM [falling, partial curve, poor fit].
With `Cn1c(C(=O)N2CCCC(C(=O)NCCCSC3CCCCC3)C2)cc2sccc21` (stereo not given) the Potency was inconclusive: 20.6 µM [falling, single point].
For `CCOC(=O)C1C(=O)C=C(c2ccc(Br)cc2)CC1c1ccco1` (stereo not given), the Potency was active: 23.1 µM.
For `O=S(=O)(c1ccc(Cl)c(NC(=S)N/N=C/c2ccc(O)cc2)c1)N1CCOCC1`, the Potency was active: 16.4 µM.
For `Cc1cc(NC(=O)CCCN2C(=O)/C(=C/c3cccs3)SC2=S)no1`, the Potency was inconclusive: 25.9 µM [activator, single point].
For `O=C(NCc1ccco1)c1ccc(Cn2c(=O)c3ccccc3n(Cc3ccc(Cl)cc3)c2=O)cc1`, the Potency was inconclusive: 4.61 µM [falling, partial curve].
For `c1coc(-c2nc3cc4ccccc4cc3nc2-c2ccco2)c1`, the Potency was inconclusive: 29.1 µM [falling, single point].
For `CCOC(=O)c1ccc2nc(NC(C)=O)sc2c1`, the Potency was inconclusive: 9.2 µM [activator, partial curve].
For `Cc1ccccc1NS(=O)(=O)c1cccc(-c2nnc(-c3ccccc3)o2)c1`, the Potency was inconclusive: 29.1 µM [falling, single point].
With `CCOC(=O)c1c(-c2ccc(F)cc2)csc1NC(=O)CN1C(=O)NC2(CCCCC2C)C1=O` (stereo not given) the Potency was inconclusive: 29.1 µM [falling, single point].
With `COc1cc(CN2CCC(CO)(CCOc3ccccc3)CC2)cc(OC)c1OC` the Potency was inconclusive: 1.03 µM [falling, full curve].
In the case of `N#CCC(=O)Nc1ccc(C(=O)OC(C(=O)Nc2cc(C(F)(F)F)ccc2Cl)c2ccccc2)cc1` (stereo not given), the Potency is reported as inconclusive: 25.9 µM [falling, single point].
For `CC(C)[N+](C)(CCOC(=O)C1c2ccccc2Oc2ccccc21)C(C)C`, the Potency was active: 5.17 µM.
For `O=C(Nc1nccs1)c1ccc(COc2ccccc2Cl)o1`, the Potency was inconclusive: 25.9 µM [falling, single point].
For `C=CCC[C@H](Cc1ccc(F)cc1)C(=O)OC[C@H](Cc1c[nH]c2ccccc12)NC(=O)[C@@H](CC=C)CC(=O)NCCO`, the Potency was inconclusive: 16.4 µM [falling, single point].
In the case of `O=C1[C@H](Cc2ccccc2)NCC=CC[C@H](c2ccc(Cl)cc2)N1Cc1ccc(Cl)cc1`, the Potency is reported as inconclusive: 18.4 µM [falling, single point].
With `O=C(CC(Nc1ccc(F)cc1)C(=O)O)c1ccccc1` (stereo not given) the Potency was inconclusive: 3.26 µM [activator, full curve].
In the case of `Cc1c(C(=O)O)sc2nc(-c3cccs3)cc(C(F)(F)F)c12`, the Potency is reported as inconclusive: 13 µM [falling, partial curve, poor fit].
With `O=C(Nc1ccccc1)c1cn2ccccc2n1` the Potency was inconclusive: 16.4 µM [falling, single point].
For `O=C(NC1CC1)c1ccc2c(c1)ncn2C1CCCC1`, the Potency was inconclusive: 13 µM [activator, partial curve].
With `COc1cccc(-c2nnc(-c3ccccc3NC(=O)c3ccc(C(C)(C)C)cc3)o2)c1` the Potency was inconclusive: 20.6 µM [activator, single point].
In the case of `CN1C(C(=O)NCC2CC2)CC2Cn3c(nc4cc(Cl)c(Cl)cc43)C21` (stereo not given), the Potency is reported as “inactive”.
For `Cc1ccccc1C(=O)Nc1nc(SCc2ccc(Cl)cc2)n[nH]1`, the Potency was inconclusive: 7.31 µM [falling, partial curve].
For `CCc1cccc(C)c1NC(=O)C1CCN(S(=O)(=O)Cc2ccccc2)CC1`, the Potency was “inactive”.
For `O=C1C2C3c4ccccc4C(c4ccccc43)C2C(=O)N1Cc1cccnc1` (stereo not given), the Potency was inconclusive: 18.4 µM [falling, partial curve, poor fit].
For `Cc1ccc(Nc2nc(Nc3ccc(C)c(C)c3)nc(N3CCOCC3)n2)cc1C`, the Potency was “inactive”.
For `FC(F)(F)c1cc(-c2ccc(Cl)cc2)nc(NCc2cccnc2)n1`, the Potency was active: 14.6 µM.
In the case of `CC(=O)OCn1ncc(N2CCOCC2)c(Br)c1=O`, the Potency is reported as “inactive”.
In the case of `COCCn1nnnc1C(c1cccs1)N1CCN(c2cc(C)ccc2C)CC1` (stereo not given), the Potency is reported as inconclusive: 32.6 µM [falling, partial curve, poor fit].
For `CCN(Cc1nc2cc(Cl)ccc2c(=O)[nH]1)C(=O)c1cccc(NC(=O)c2cccs2)c1`, the Potency was inconclusive: 29.1 µM [falling, single point].
With `COc1cc2ccccc2cc1C(=O)O` the Potency was “inactive”.
In the case of `CN(CC(=O)Nc1ccc(Cl)c(C(F)(F)F)c1)C(=O)c1ccc(OCC2CCCO2)cc1` (stereo not given), the Potency is reported as active: 16.4 µM.
For `CC(C)=CCCC(C)CN1CCC(n2nccc2NC(=O)c2ccc3c(c2)OCO3)CC1` (stereo not given), the Potency was inconclusive: 6.51 µM [activator, partial curve, poor fit].
